About 3,700 (7%) of roughly 53,000 sequences were called active.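 The calls were made as follows: active = gene knockdowns whose robust z-score for IL-1 alpha signal is at least 2 or at most -2, so actives lie on both sides; inactive = the rest.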 The list shows a part of the results.

This test is described as follows: Components of the Cytosolic LPS Sensing Pathway: Gene Identification via Genome-wide siRNA Screen.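 Also: robust z of the log signal after scaling to non-targeting control siRNA wells of the plate.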 To be noted: RAW264.7 macrophages, IL-1a HTRF, actives lie on both sides, screened at 100 nM (by protocol), cells primed 5 h with Pam3CSK4 first. A digest of the protocol:
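IL-1a HTRF of supernatants after 24 hour LipidA transfection of Pam3CSK4-primed (5 hours) RAW264.7 cells, 48h post-siRNA transfection (100 nM). Scores: percent of plate negative-control median, then log-based robust z-score.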
On to CCAUUAUUUUACGAAACCUTT against Rbm10, for which the z-score is inactive: -0.614.
The result for GGAACACACAGAGGUUUAUTT against Hacd1 reads inactive: 1.87.
In the case of GGGUGGUCAGUGGUCAAAATT against Chodl, the z-score was inactive: 0.319.
The result for GGCCAAUGAAGACCCAGAATT against Pomgnt1 reads inactive: -0.00901; that for GCUGAUCCUCUCCCUUCAUTT against Tas2r131, inactive: -0.463.
Turning to CCGAUUUUGCACCUCAGCUTT against Bphl, the z-score was inactive: -1.73.
The same measure for GGUGUUUGAUCUUUUAAAGTT against Fanci: inactive: -0.715; for GCUACUAAACAGGGUGUGATT against Gpsm3: active: -2.42.
As for GGAUAUACUGUGGAGGCUUTT against Gzmd, the z-score was inactive: 1.2.
The same measure for CCUCUAUGCGUCCAAUAUUTT against Kdm6b: inactive: 0.07; for GGAUAUUUUUUGGUGCUGATT against Ankrd49: inactive: -0.224.
The same measure for GCUAAGUCGGAGCAGUUUUTT against Clba1: active: 2.07.
The same measure for CCGAGAAACGAAUAAGUCATT against Rbmx: inactive: 0.498.
Turning to GGCCUUAAUUAGCCUCUCUTT against Gm5111, the z-score is inactive: 1.85.
For the sequence GGUAACGAUGAGGUCAUCGTT against Atp6ap1, the z-score is inactive: -0.378.
The result for GGAACUCAGUAACACCCAGTT against Fcamr reads inactive: -0.47.
GGCAAGAGCAAGAAAUGGCTT against Grk6: the z-score was inactive: -1.11.
The same measure for GGAACAAAUCCUGGAACUGTT against Zfp449: inactive: 1.15; for CCACUUUCCCAUUCAGGAATT against Gpr84: inactive: 1.73; for CCUAUAAUGCUGAAAUGGCTT against Olfr702: inactive: 0.369.
As for GGUAGUUCAGAUCUGAUUUTT against Svep1, the z-score is inactive: 0.599.
The same measure for GCAGUUGGUUCAAGUCAACTT against Psat1: inactive: 0.886; for GGCAACUUAAGUUUUACAGTT against Tmem170: inactive: -0.898; for CCAAAUGAGGCUACCACAATT against Socs7: inactive: -0.0785.
The same measure for GAUUCUUACUUUGGUCUACTT against Olfr9: inactive: 0.62; for GCGGUGAUUUCGUCUAUUUTT against Atg14: inactive: -0.2.
The same measure for GGCCGUGCCAUUCAAAGACTT against Aoah: inactive: -0.109; for GGCAGAUAGUACUAAUGAATT against Mucl1: inactive: -0.000457; for GGCAAUCGAGAUUAUGCCATT against Itgav: inactive: -0.998.
Regarding GGGCAAGAAGAGAAACUAATT against Krtcap2, the z-score is inactive: 0.319.
The result for GGUUUUUUUCCUGUGAAUGTT against Ipcef1 reads inactive: 0.381.
The same measure for GGCACCACUGAUUUGAAUCTT against Arl15: inactive: 0.131; for CGAUGAGGGCAGAUACCUATT against Pthlh: inactive: 1.22; for CCGUUCUCAGCAGUUACUGTT against Pbld1: inactive: -0.216.
Regarding GGAGCUUUCUCAGAGGUGUTT against Camk1g, the z-score is inactive: -1.47.
GGCCAUCUGUAAGAGAAGCTT against Ankrd61: the z-score is inactive: 0.657.
The same measure for GGUGAAGACCAUCUUGACCTT against Clcnkb: inactive: -1.74.
With GGAGAAAAUCCAUCUUGAATT against Ces1f, the z-score is inactive: -1.28.
Consider GCAACAAGUCUGGAGACAATT against Pebp1, for which the z-score was inactive: -0.595.
Regarding GAACAUCAUCUCACACUCATT against Olfr874, the z-score was inactive: -0.000467.
The result for GGAGCAAGUAAAAGUAUCUTT against Fpr-rs6 reads inactive: -0.162; that for CGGUAAAGUAGGGAAGAUGTT against Duox2, inactive: -0.168.
The result for GCAAGAAAAACAUGAACUGTT against Klra17 reads inactive: 1.26.
The result for CCAAAUUUCAUAGUUUGGGTT against Gripap1 reads inactive: -0.04.
Regarding GGAGAAAGUGAUUGACAUATT against Lpin2, the z-score was inactive: -0.0579.
Consider GCACGAGAAAAAUACUACGTT against Slc18a2, for which the z-score was inactive: 0.612.
The same measure for GCUCUGUUUUUAACCAUCCTT against Ccnt2: inactive: 0.227.
The result for GGUAGUGCAACCAUCACGUTT against Pcdhb14 reads inactive: -0.931.
The same measure for GGAGAAUCCAUUCAACUCUTT against Aoah: inactive: -0.156; for GCAGAGCUUCUGCUCUUCUTT against Olfr527: inactive: -0.874.
With GGUACAGAAACAGUUAGUUTT against Olfr432, the z-score is inactive: 0.328.
The same measure for GGGUGCCUAGCAGAUGAACTT against Sp110: inactive: -0.912.
The result for GGUUUUUAAGGGAAGGCCCTT against Ntmt1 reads inactive: 0.284.
The same measure for GGACCAUGAAGAGGAUCCUTT against Gjc1: inactive: -0.406; for GCCCUAUCUCAAGUCACUATT against Entpd3: inactive: 0.269.
On to GCACAAGCGAUGGGUUAACTT against Fkbp1a, for which the z-score was inactive: -0.708.
The result for GCUGGAUCCAUCUAAUUGCTT against Klhl12 reads inactive: 0.0684.
Turning to “GGAAUAACCCAGAGAACUATT against 9430097D07Rik”, the z-score is inactive: 0.24.
For GGGUGGUUAGAACAGCCACTT against Prss16, the z-score was inactive: -1.21.
In the case of CGACUCCAAGUGGUUUAAATT against Sema6b, the z-score is inactive: 1.34.
The result for GGAUGACCAUGAAAGCUGUTT against Vps13b reads inactive: 1.87.
Consider GGUGAGAAAUCGAAGCCCUTT against H1f8, for which the z-score is inactive: -1.12.
In the case of CCUCUGAACUCCAACCGAATT against Thegl, the z-score is inactive: 0.415.
For the sequence GCACCUAAAGUACGUUUCATT against Ube2n, the z-score is inactive: -0.163.
Regarding GCCAGUACACUCCACCUGUTT against Cep55, the z-score was inactive: -1.83.
As for GGUAGUAGAGUCAAAAAAGTT against Top1, the z-score is inactive: 0.805.
The result for GGUGUAAAGUAAUCAAGGCTT against Dbx2 reads inactive: 0.453.
Take GGAACAGAACCUCAGACGATT against Itih5: the z-score is inactive: 0.782.
The same measure for GCAACAACCUGUGCCUACATT against Lgals1: inactive: 0.573.
The same measure for GGUUCUUGACCCUUUCACATT against Atcay: inactive: -1.11; for GCUGUGAAAACGCAGUUACTT against Ccser2: inactive: 1.77; for GGUACACUGGUAUACGUAUTT against Samd9l: inactive: -1.45.
The same measure for GACUCCCACUUACACUCUCTT against Olfr1312: inactive: 0.284; for CGGAACCAUACUUUCCUUATT against Olfr1162: inactive: 0.205; for GCAGAGAUAAAUUGGAAAGTT against Art2b: inactive: 0.292.
Consider GGUUACAUGGAUUGAAGCUTT against Scrn3, for which the z-score is inactive: 0.183.
As to GCCAAUGAUACCUUUGACATT against Mcoln1, the z-score is inactive: -0.385.
On to GCCCUUUUCAAGUGAUCAGTT against Pfkfb1, for which the z-score was inactive: -1.33.
On to CGAGAUGGGAGAUUGAAAUTT against Ms4a8a, for which the z-score was inactive: 0.47.
As to GCCAAUUGGACCUUAGAAATT against Nup107, the z-score is active: -2.58.
The result for GGGUAUAGGGAUGGUGAAUTT against Ppil1 reads inactive: 0.834; that for GCUGGUACAGCGUAUACCATT against Cep170b, inactive: -1.03; that for CCUGAUGAUUCAACAAAAGTT against Pum2, inactive: 0.106.
For GGUCCUGACUGGAUACCUGTT against Ece1, the z-score is active: 4.19.
The result for GGAGGACCUAGAUGUCAAATT against Prpf38b reads inactive: 1.19; that for GCCAUGAAUCCUAUCCGCATT against Ephb3, inactive: -0.967; that for GGAGAAAGGAUAUGAACUUTT against Rbm47, inactive: 0.322.
The result for CCUCUGUGCUCGUCUUUUUTT against Arhgap6 reads inactive: -1.15; that for GCGGACAGUUUGGCACAAUTT against Becn1, inactive: 0.537.
The same measure for GGUGUAUCAAGAAACUAACTT against Ago3: inactive: 0.55; for GGUGAAGAAGGUGUUCCAUTT against Pvalb: inactive: 1.48.
Take GGGCGACAUCUUUAGCAAATT against Sh3bp4: the z-score was inactive: -0.0472.
The same measure for GACCAUCAGUGAUUGAGGATT against Speer4b: inactive: -1.67.
Consider “CGACCAUUAUACAACAGAUTT against F630111L10Rik”, for which the z-score is inactive: 0.294.
The same measure for GGAACAAAGAUGUCAAGAUTT against Olfr904: inactive: -1.84.
The result for GGAAACAGUCAUGCAGCAATT against Plvap reads inactive: -0.348; that for GGAGUCAUGUCUGUUGGCATT against Naa16, inactive: -1.6.
The same measure for GGCAAAGGCCUAUGAACUGTT against Phka1: inactive: 0.484.
Consider GGAGACGGAGCUGUUAGAUTT against Plcb1, for which the z-score was inactive: -0.104.
The result for GGACUUACUGACAAGAAACTT against Pcdhgb8 reads inactive: -0.52; that for GGGCCAAUGAUGGACUUCCTT against Syp, inactive: 0.33; that for GGUGAAGACUUCCAGAAGGTT against Reg3a, inactive: -0.186.
On to GCCAGUGGUAUCUGGAAGUTT against Brca2, for which the z-score is inactive: 0.0865.
The same measure for GGUGCUGAACAUCUAUGGGTT against Myo1d: inactive: 0.497; for GGGAUUGAACCCUUGUUUUTT against BC049762: inactive: 1.03.
The result for CCUUCUUGACUAUUCGUCUTT against Olfr1509 reads inactive: -0.58.
Turning to GGUCCCUUUAUCUUUCUUUTT against Vwa7, the z-score is inactive: -0.099.

The record behind these values is PubChem BioAssay AID1508600 (Functional Genomics Laboratory (NCATS/FGL), 2020).
